Data taken from doi:10.1101/2020.04.18.047571.
Results are given in words; binding and its absence hold for the method and conditions named. In cells and extracts the contact can be indirect. Some entries that bind do so weakly or less than the wild type.

Amino acid sequences for entries named in this document (tags omitted).
UniProt P06730: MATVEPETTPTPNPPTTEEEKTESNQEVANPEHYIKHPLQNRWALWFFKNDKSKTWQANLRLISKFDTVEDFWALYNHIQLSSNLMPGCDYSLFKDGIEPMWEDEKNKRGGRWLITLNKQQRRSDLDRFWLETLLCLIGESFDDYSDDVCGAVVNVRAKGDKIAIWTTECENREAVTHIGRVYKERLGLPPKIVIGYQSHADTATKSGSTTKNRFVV

Molecular target: 3X-flag/1X-myc epitope-tagged human eIF4E (flag-eIF4E) (human) (UniProt P06730)
Experiment: co-IP

B1: 4E-BP2 (eIF4E-binding protein 2) (protein, UniProt Q13542 1-120)
chain: MSSSAGSGHQPSQSRAIPTRTVAISDAAQLPHDYCTTPGGTLFSTTPGGTRIIYDRKFLLDRRNSPMAQTPPCHLPNIPGVTSPGTLIEDSKVEVNNLNNLNNHDRKHAVGDDAQFEMDI
Which binding does the source give for B1 here?
Its binding is “binds”.
